The record followed here is PubChem BioAssay AID493014 (National Center for Advancing Translational Sciences (NCATS), 2011).

The nature of the experiment: qHTS Assay to Find Inhibitors of Chronic Active B-Cell Receptor Signaling. The note with it: ABC-DLBCL IkBa-CBG/CBR reporter, luminescence ratio (green luciferase fused to IkBa over red control in TMD8 lymphoma cells), 4 h. The method, boiled down: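 Doxycycline induced both beetle luciferases in TMD8 lymphoma cells; IKK-driven degradation limits the IkappaBalpha-fused green signal, while red luminescence normalises for cell number and nonspecific effects. Compounds tested up to 46 uM, 4 hrs.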

Setting [1] is: measured here: CBR red luminescence, cell number.
Setting [2] is: measured here: IkBa-CBG green luminescence.

SMILES strings stand for the structures. The list shows a part of the results. Shown are side measurements of this screen, not its main read-out; they come without a call. The list favours compounds with an active or inconclusive main result. The note in brackets gives the kind of curve behind each potency; many fits are weak.

Broadly, the AC50 is the concentration at which the activity in the assay is half-maximal. `COc1ccc(-c2n(Cc3ccccc3)c3ccccc3[n+]2Cc2ccccc2)cc1`: the AC50 under setting [1] was 7.08 µM [falling, partial curve]. Take `N#Cc1nc(N2CCCCC2)nc(N2CCOCC2)n1`: the AC50 under setting [2] is 8.2 µM [falling, partial curve, poor fit].

For `O=C(CCc1ccccc1)N/N=C\C1CC=CCC1` (stereo not given), the AC50 under setting [1] was 0.891 µM [rising, partial curve, poor fit]. The same measure, in the same setting: for `C/C(Cl)=C/Cn1c(SCc2ccc(Cl)cc2)nc2c1c(=O)[nH]c(=O)n2C` the value was 4.11 µM [rising, partial curve, poor fit]; for `CC(=O)N1CCN(c2nc(-c3cccs3)nc3ccccc23)CC1`, 8.91 µM [falling, partial curve]; for `CCOc1ccccc1Nc1nnc(SCC(=O)N2CCCC2)s1`, 14.6 µM [falling, partial curve, poor fit]. Consider `CCN(CC)CCNC(=O)c1ccc(NC(=O)c2cn(-c3ccccc3)nc2-c2cccs2)cc1`, for which, under setting [1], the AC50 was 2.82 µM [falling, partial curve, poor fit]. On the same count and under the same terms, for `CC(=O)Nc1ccc(S(=O)(=O)N(C)c2ccc(O)cc2)cc1` the value was 3.16 µM [falling, full curve, poor fit]; for `Cc1ccc(NC(=O)c2ccc(Cl)c(N3C(=O)C=CC3=O)c2)cc1`, 15.8 µM [falling, partial curve, poor fit]; for `Fc1ccccc1/C=C1\CCCC2=C1Nc1nnnn1C2c1ccccc1F` (stereo not given), 35.5 µM [falling, single point]. Still for that read-out and setting: for `O=C(CNC(=S)N(Cc1ccccc1)Cc1ccccc1F)NCCc1ccc(Cl)cc1` the value was 35.5 µM [falling, single point]; for `O=C(COC(=O)/C=C/c1cn(-c2ccccc2)nc1-c1cccnc1)Nc1ccc(Cl)cc1Cl`, 18.4 µM [falling, single point]. Turning to `O=[N+]([O-])c1cc(/C=N/O)ccc1Sc1ccccc1`, the AC50 runs as follows: under setting [1], 0.326 µM [rising, full curve, poor fit]; under setting [2], 7.31 µM [falling, partial curve]. With `CCO[C@@H]1OC(C(=O)NCc2ccccc2)=C[C@H](c2coc3ccccc3c2=O)[C@H]1CCCO`, the AC50 under setting [1] was 11.2 µM [rising, partial curve]. Same read-out and setting: for `COc1ccc(C2CN=NC2C(=O)c2ccccc2)cc1` (stereo not given) the value was 15.8 µM [rising, single point]. Same read-out and setting: for `Cc1ccc(NC(=O)CN(C)C(=O)Cn2ncc(Cl)c(Cl)c2=O)cc1` the value was 5.8 µM [falling, full curve]; for `COc1cc(/C=N\NC(=O)c2cccc(Cl)c2)ccc1Oc1ccc([N+](=O)[O-])cn1`, 7.08 µM [falling, partial curve].

For `CC1(CC(=O)N/N=C/c2cc3c(cc2Br)OCO3)OCCO1`, under setting [1], the AC50 was 14.1 µM [falling, partial curve, poor fit].

In the case of `O=C(O)COc1ccccc1/C=C1\SC(=Nc2ccc(F)cc2)N(c2ccc(F)cc2)C1=O`, under setting [1], the AC50 is 20 µM [falling, partial curve].

For `CCNC(=S)N/N=C/c1ccc(-c2ccccc2)o1`, under setting [1], the AC50 was 0.366 µM [rising, full curve, poor fit]. On the same count and under the same terms, with `COc1ccccc1OCCNC(=O)CN(c1cccc(C)c1)S(=O)(=O)c1ccccc1` the figure was 8.91 µM [falling, partial curve, poor fit].

As to `CC(=O)c1cccc(NC(=O)CN(c2ccccc2F)S(C)(=O)=O)c1`, the AC50 under setting [1] is 23.1 µM [falling, single point].

For the compound `O=C(CCCc1c[nH]c2ccccc12)Nc1ccc2ccccc2c1`, the AC50 under setting [1] was 29.1 µM [falling, single point]. Still for that read-out and setting: for `COC(=O)c1ccc(Nc2c([N+](=O)[O-])c(=O)oc3ccccc23)cc1` the value was 11.2 µM [falling, partial curve]; for `CCCCOc1ccc(C(=O)Nc2ccc(C)cc2[N+](=O)[O-])cc1`, 0.82 µM [rising, full curve, poor fit].

Take `Cc1nc(N)sc1C(=O)N/N=C/c1c[nH]c2ccccc12`: the AC50 under setting [1] was 5.8 µM [falling, partial curve, poor fit].

Consider `Cc1[nH]n(C(N)=S)c(=O)c1N=Nc1cccc(Cl)c1`, for which the AC50 is 35.5 µM [falling, single point] under setting [1] and 0.631 µM [falling, partial curve, poor fit] under setting [2]. Turning to `CC(C)N1C(=O)S/C(=C/c2ccccc2OCc2ccc(C(=O)O)cc2)C1=O`, under setting [1], the AC50 is 10 µM [falling, partial curve, poor fit]. The same measure, in the same setting: with `COc1ccccc1N1CCN(C(=O)c2cc(=O)c3cc(C)ccc3o2)CC1` the figure was 3.16 µM [rising, single point]. On the same count and under the same terms, for `COCCN(Cc1ccccc1)C(=S)Nc1ccc(Cl)cc1` the value was 6.31 µM [rising, partial curve, poor fit]; for `C=C(C)C(=O)Nc1cccc(C2=NOC3(C2)C[C@@H](C(N)=O)N(C(=O)/C=C/C=C/C)C3)c1` (stereo not given in full), 35.5 µM [rising, single point]. In the case of `CCN(C(=O)c1cccs1)c1nnc(-c2ccncc2)s1`, the AC50 under setting [1] is 29.1 µM [rising, partial curve, poor fit]. With `Cn1c(C(=O)N[C@@H](Cc2ccccc2)C(=O)NCCC(=O)O)cc2cc(Cl)ccc21`, under setting [1], the AC50 is 31.6 µM [falling, single point]. For the compound `O=C(NNc1cccc(Cl)n1)c1ccc(Cl)cc1Cl`, the AC50 under setting [1] was 1.12 µM [rising, full curve, poor fit]. Consider `CN(Cc1ccccc1)c1ccc(N2C(=O)CCC2=O)cc1[N+](=O)[O-]`, for which the AC50 under setting [1] was 14.1 µM [rising, single point]. As to `CC(C)n1cnc2c(Nc3cccc(F)c3)nc(NCCO)nc21`, the AC50 under setting [1] was 8.91 µM [falling, partial curve]. With `CC(=O)NC(=S)Nc1ccc(NC(=O)c2cccs2)cc1`, the AC50 under setting [1] was 20.6 µM [falling, single point]. Same read-out and setting: for `CCOC(=O)Nc1ccc2nc(Sc3ccc(Cl)cc3)sc2c1` the value was 35.5 µM [rising, single point].

Turning to `COc1cc(C(=O)NCc2cc(C)nc3ccccc23)cc(OC)c1OC`, the AC50 was 35.5 µM [rising, single point] under setting [1] and 10 µM [falling, partial curve] under setting [2].

For `CC1CC(C)(C)NC(C)c2ccccc21` (stereo not given), under setting [1], the AC50 was 35.5 µM [rising, single point]. In the case of `CC1CC(C)CN(C(=O)COC(=O)C2CCN(S(=O)(=O)c3ccc4c(c3)OCCO4)CC2)C1` (stereo not given), the AC50 under setting [1] was 29.1 µM [falling, single point]. Turning to `CC(C)CC(=O)N/C(N)=N/c1nc2ccccc2s1`, under setting [1], the AC50 is 20.6 µM [falling, partial curve]. On to `O=C(NN=C1CCCC1)c1n[nH]c2c1CCC2`, for which the AC50 was 7.94 µM [rising, partial curve] under setting [1] and 4.47 µM [falling, full curve] under setting [2]. Turning to `Cc1cccc(N2CCN(C(=S)NC3CCCCC3)CC2)c1C`, the AC50 under setting [1] is 35.5 µM [falling, single point]. In the case of `NC(=O)NC[C@@H]1CC[C@@H](Cc2ccc(-c3ccccc3)cc2)O1`, the AC50 under setting [2] is 11.6 µM [falling, partial curve]. On to `S=c1[nH]nc(COc2ccc3c(c2)OCO3)n1-c1ccccc1`, for which the AC50 under setting [1] is 1.64 µM [falling, partial curve, poor fit]. As for `COc1nc(Oc2ccc(=O)n(C)n2)nc(N(C)C)n1`, the AC50 under setting [1] was 2.06 µM [falling, partial curve, poor fit]. As to `CSc1ccccc1N1CCN(C(=O)Nc2ccc3c(c2)NC(=O)CO3)CC1`, the AC50 under setting [1] was 8.91 µM [falling, partial curve, poor fit]. Consider `N#CC1=C(SCC(=O)Nc2ccc(C(=O)O)cc2)NC(=O)CC1c1ccco1` (stereo not given), for which the AC50 under setting [1] was 22.4 µM [falling, partial curve, poor fit]. With `COC(=O)c1ccc(C)c(NC(=O)CCNC(=O)c2ccc([N+](=O)[O-])cc2)c1`, the AC50 under setting [1] is 3.26 µM [rising, partial curve, poor fit].

Consider `C[C@]12c3[nH]c4ccc(Cl)cc4c3CCN1C(=O)[C@@H](CC(=O)NCCCn1ccnc1)C[C@@H]2C(=O)N1CCCCC1`, for which the AC50 under setting [1] was 0.411 µM [rising, full curve, poor fit].

As to `CCN(CC)C(=O)CSc1nnc(-c2ccc(S(=O)(=O)N3CCCC3)cc2)o1`, the AC50 under setting [1] is 0.0146 µM [rising, full curve, poor fit]. Take `COc1ccc(C(=O)COC(=O)CNC(=O)C2CCCCC2)c(OC)c1`: under setting [1], the AC50 was 9.2 µM [rising, partial curve, poor fit]. Still for that read-out and setting: for `NC(=O)c1cc([N+](=O)[O-])ccc1NCCc1ccccc1` the value was 10 µM [falling, partial curve, poor fit]. Same read-out and setting: with `COc1ccc(CC(=O)N(Cc2cc3cc(OC)ccc3[nH]c2=O)C(C)C)cc1` the figure was 2.06 µM [rising, partial curve, poor fit]; with `O=C(COC(=O)CCc1c[nH]c2ccccc12)Nc1ccccc1`, 7.31 µM [rising, partial curve, poor fit]. As for `Cc1nn(-c2cccc(C(F)(F)F)c2)c(Cl)c1/C=N/Nc1cccc(C(=O)O)c1`, the AC50 under setting [1] is 16.4 µM [falling, single point]. Still for that read-out and setting: for `Cc1ccc(NC(=O)C(C)Sc2nnc(-c3cccnc3)n2-c2ccccc2)cc1` (stereo not given) the value was 20.6 µM [falling, single point]; for `CCn1cc(C(=O)NCCCN2CC(C)CC(C)C2)c(=O)c2cc(S(=O)(=O)N(C)C)ccc21` (stereo not given), 20.6 µM [rising, partial curve, poor fit]. Same read-out and setting: with `COCC(=O)N1CCC(n2nnc3cc(C(F)(F)F)ccc32)CC1` the figure was 11.2 µM [rising, partial curve]; with `COc1ccc(C(C(=O)NC2CCCCC2)N(C(=O)c2ccco2)c2ccccc2C(C)=O)cc1OC` (stereo not given), 4.47 µM [falling, partial curve, poor fit].
